Reference: article PMC6259748, “Selection of Peptides Targeting Helix 31 of Bacterial 16S Ribosomal RNA by Screening M13 Phage-Display Libraries” (Molecules, 2011)
“And” between values parts separate entries of the source, which are not always exact repeats. Equal values may be shown once.

Each substance was assayed on modified h31 (unmodified h31 in counter selection) (assay: phage-display selection against modified h31 with unmodified h31 counter selection in round 3). Details: one hundred phage isolates sequenced after third round; unmodified h31 in counter selection in round 3.
Assay type: binding, E. coli
Work on “CVRAPTL [heptapeptide from counter selection]” yielded a Frequency of 2. “CVRPFAL [heptapeptide from selection against modified h31 with unmodified h31 counter selection]” showed a Frequency of 5. “TLWDLIP [heptapeptide selected against modified h31, with and without counter selection]” was tested, and the Frequency was 2. Substance “TLWPLSP [heptapeptide from counter selection]” has a Frequency of 2. “TVRPFTL [heptapeptide from counter selection]” was tested, and the Frequency was 2.

Each substance was assayed on unmodified h31 (assay: phage-display selection against unmodified h31). Details: two hundred phage isolates sequenced after fourth round; unmodified h31 target.
Assay type: binding, E. coli
“HHHPPLA [major heptapeptide selected against unmodified h31]” gave a Frequency of 5. Work on “HHPPFPP [heptapeptide selected against unmodified h31]” yielded a Frequency of 2. Work on “HNHLGVH [heptapeptide selected against unmodified h31]” yielded a Frequency of 2. “HPPHFPN [heptapeptide selected against unmodified h31]” showed a Frequency of 1. Work on “HPPSWGD [heptapeptide selected against unmodified h31]” yielded a Frequency of 2. “HPTGLFR [heptapeptide selected against unmodified h31]” showed a Frequency of 2. For “KPFHNST [major heptapeptide selected against unmodified h31]”, the Frequency was 2 and 3. Work on “KPGYSSA [heptapeptide selected against unmodified h31]” yielded a Frequency of 2. “KPHAPHR [heptapeptide selected against unmodified h31]” gave a Frequency of 1. “KPPHHPR [heptapeptide selected against unmodified h31]” was tested, and the Frequency was 3. “KPPHPVY [heptapeptide selected against unmodified h31]” showed a Frequency of 1. With “KPPQVPL [heptapeptide selected against unmodified h31]” the Frequency was 2. “KPVKVPR [heptapeptide selected against unmodified h31]” showed a Frequency of 2.
